No constants are given. Whether binding was seen depends on the method and setting. Some binding calls cover weakened binding; strength is not graded here.
Target: human CD34 on cells (CD34+ cells of peripheral and cord blood; CD34-expressing cell line) (human) (UniProt P28906)
Experiment: flow cytometry, Jurkat cells, 10 µg/ml primary antibody, α-rat AF647 secondary; the dashed histogram is taken as the control (no key on the sheet)

Chains of the proteins cited; added tags and fusions are not shown. Residues count along the entry.
UniProt P28906, residues 32-385: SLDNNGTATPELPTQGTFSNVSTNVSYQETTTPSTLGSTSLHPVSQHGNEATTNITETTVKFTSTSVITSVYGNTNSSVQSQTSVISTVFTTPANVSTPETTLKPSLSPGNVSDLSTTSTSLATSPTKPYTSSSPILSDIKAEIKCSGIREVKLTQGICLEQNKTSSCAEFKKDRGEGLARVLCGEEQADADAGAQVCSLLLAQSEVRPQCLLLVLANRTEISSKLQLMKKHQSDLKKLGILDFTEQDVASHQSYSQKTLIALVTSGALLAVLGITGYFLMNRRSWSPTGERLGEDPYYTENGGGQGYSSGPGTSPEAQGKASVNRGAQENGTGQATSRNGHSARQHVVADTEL

binding: binds
B1: L.1c7 (antibody, V domains shown)
VH: EMQLLESGGGLVQPGGSLRLSCAASGFTFGHFAMSWVRQVPGKGLDWVSAISGGGSFTYSADSVKGRFTTSRDNSKNTLYLQMSSLRAEDTALYYCAKDQGYDYSWYYFDFWGQGTLVTVSS
VL: DIQMTQSPSTLSASVGDRVTITCRASQSISSWLAWYQQRPGKAPKLLIYKASSLESGVPSRFSGRGSGTEFTLTISSLQPDDFATYYCQQYKSHSITFGQGTRLEIK

Reference: US20230405146A1
